Data: the supplement of paper PMC10849652
The other results are listed elsewhere or left out.

Sequences of proteins named here, by UniProt entry; tags and fusion partners are left off. A change or cut given only in a name is not applied to a line headed by its entry.
UniProt O60739, whole entry, looked up: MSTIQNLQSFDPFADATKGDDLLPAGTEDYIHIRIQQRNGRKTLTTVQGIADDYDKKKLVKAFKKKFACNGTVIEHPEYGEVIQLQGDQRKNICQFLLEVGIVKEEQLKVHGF
UniProt Q9NX74: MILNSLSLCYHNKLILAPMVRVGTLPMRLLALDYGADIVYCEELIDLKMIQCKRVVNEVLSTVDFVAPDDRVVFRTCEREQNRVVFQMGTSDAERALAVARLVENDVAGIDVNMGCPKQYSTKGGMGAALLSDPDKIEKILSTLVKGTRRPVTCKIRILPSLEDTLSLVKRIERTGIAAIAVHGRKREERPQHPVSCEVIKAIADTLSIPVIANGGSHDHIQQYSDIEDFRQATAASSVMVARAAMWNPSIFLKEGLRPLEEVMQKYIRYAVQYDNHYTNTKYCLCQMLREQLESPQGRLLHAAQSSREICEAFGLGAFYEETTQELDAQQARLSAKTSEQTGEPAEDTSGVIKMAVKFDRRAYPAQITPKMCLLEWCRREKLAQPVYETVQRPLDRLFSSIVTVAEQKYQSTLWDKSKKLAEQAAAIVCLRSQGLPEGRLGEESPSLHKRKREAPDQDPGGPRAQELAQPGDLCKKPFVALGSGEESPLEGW
UniProt Q5VYK3, whole entry, looked up: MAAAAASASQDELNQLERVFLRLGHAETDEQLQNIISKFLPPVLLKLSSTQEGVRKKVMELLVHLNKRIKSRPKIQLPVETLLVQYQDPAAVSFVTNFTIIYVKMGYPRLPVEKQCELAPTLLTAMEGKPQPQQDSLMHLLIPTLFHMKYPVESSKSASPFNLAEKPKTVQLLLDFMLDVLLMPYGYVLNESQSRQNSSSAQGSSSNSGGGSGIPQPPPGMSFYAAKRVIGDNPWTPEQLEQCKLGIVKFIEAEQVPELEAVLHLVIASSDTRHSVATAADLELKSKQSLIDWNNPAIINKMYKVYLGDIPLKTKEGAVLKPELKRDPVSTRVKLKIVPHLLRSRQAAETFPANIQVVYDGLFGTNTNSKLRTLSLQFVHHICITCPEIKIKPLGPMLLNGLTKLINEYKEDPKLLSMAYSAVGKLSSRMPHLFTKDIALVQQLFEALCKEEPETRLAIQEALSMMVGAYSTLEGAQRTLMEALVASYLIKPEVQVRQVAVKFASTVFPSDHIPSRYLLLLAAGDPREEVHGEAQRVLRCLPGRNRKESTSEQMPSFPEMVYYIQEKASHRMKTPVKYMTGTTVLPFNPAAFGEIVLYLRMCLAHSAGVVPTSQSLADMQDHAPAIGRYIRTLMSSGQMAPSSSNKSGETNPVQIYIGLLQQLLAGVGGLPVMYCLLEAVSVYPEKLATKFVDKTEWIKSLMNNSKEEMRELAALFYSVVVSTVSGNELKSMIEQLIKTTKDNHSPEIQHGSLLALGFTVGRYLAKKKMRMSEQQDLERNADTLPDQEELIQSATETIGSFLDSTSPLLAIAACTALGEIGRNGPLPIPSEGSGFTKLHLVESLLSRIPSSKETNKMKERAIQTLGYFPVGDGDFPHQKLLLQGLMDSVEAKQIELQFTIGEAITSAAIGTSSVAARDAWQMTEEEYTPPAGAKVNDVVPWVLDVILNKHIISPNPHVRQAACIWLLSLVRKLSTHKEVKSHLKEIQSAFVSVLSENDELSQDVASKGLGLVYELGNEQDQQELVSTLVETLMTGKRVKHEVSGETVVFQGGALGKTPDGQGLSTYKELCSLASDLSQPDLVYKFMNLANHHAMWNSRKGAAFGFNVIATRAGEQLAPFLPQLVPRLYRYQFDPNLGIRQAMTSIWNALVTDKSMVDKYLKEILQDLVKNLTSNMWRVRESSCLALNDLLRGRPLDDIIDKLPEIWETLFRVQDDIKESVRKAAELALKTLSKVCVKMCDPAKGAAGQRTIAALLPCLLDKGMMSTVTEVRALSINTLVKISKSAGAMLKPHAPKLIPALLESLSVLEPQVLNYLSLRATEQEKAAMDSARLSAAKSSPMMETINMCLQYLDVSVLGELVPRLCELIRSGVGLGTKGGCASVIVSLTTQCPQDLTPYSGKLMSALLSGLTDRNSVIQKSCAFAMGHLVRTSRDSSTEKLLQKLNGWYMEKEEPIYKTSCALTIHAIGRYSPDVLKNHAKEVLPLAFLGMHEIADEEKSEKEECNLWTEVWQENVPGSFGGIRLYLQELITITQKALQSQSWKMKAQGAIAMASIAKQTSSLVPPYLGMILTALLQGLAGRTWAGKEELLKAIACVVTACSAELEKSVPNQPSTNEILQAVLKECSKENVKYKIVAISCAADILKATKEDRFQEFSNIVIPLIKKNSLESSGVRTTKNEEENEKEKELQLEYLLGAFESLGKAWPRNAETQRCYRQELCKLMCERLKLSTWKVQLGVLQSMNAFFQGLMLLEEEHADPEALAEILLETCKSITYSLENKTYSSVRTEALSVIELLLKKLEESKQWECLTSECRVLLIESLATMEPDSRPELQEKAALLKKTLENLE
UniProt Q14126: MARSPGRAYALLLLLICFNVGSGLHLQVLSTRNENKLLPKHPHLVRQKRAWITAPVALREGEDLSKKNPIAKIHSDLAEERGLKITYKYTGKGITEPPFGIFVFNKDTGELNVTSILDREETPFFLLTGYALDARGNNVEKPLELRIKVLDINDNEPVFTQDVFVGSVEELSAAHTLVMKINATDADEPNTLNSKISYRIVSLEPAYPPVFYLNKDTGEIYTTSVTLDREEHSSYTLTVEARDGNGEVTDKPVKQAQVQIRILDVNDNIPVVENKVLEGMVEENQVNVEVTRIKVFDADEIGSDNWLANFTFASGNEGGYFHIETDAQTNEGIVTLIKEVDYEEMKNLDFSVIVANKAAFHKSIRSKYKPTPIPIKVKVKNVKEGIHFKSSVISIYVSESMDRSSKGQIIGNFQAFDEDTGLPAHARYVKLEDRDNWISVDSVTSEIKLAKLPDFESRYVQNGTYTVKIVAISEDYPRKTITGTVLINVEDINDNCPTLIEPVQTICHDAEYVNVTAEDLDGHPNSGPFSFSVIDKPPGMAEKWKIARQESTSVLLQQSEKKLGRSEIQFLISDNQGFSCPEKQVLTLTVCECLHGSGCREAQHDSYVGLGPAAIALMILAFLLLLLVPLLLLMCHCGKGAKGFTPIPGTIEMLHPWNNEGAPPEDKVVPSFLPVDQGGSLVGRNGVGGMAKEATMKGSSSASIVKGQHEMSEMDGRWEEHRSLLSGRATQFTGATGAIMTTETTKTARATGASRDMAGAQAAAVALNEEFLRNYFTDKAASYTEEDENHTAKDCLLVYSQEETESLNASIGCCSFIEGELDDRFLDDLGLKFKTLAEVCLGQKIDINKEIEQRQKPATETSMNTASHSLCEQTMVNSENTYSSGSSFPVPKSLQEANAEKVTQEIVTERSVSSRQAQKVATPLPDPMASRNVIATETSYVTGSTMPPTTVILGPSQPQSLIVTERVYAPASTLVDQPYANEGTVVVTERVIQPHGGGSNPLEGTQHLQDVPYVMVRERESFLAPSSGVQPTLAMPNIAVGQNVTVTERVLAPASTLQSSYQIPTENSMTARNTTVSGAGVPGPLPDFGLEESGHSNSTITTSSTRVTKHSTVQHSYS
UniProt Q9Y295: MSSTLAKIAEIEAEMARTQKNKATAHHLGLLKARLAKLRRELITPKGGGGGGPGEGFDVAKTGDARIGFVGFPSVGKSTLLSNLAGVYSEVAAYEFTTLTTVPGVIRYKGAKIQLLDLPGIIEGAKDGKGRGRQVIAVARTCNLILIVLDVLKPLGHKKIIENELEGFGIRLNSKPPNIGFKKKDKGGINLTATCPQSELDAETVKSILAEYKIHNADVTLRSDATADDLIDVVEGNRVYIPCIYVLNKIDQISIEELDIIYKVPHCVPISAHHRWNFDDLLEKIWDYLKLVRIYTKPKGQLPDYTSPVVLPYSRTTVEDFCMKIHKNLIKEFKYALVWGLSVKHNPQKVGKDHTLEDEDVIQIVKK
UniProt Q96G46: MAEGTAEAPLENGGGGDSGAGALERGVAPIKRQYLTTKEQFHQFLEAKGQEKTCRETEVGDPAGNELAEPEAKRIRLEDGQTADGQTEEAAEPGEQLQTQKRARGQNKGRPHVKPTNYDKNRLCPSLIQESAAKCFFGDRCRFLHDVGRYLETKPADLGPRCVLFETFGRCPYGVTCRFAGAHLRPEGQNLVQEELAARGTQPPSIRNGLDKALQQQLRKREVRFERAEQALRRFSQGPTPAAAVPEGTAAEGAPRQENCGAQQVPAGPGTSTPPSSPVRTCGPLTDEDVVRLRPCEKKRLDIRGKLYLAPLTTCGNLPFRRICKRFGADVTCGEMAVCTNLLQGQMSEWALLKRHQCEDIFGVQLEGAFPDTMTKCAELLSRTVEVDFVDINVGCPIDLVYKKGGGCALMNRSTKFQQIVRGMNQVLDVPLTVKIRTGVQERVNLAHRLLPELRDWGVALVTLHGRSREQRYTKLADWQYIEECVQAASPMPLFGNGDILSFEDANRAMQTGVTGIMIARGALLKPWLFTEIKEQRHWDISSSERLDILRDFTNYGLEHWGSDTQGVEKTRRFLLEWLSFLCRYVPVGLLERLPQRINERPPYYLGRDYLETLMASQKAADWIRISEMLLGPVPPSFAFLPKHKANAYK
EEF1AKMT2, A0A494BZY7, UniProt A0A494BZY7, whole entry, looked up: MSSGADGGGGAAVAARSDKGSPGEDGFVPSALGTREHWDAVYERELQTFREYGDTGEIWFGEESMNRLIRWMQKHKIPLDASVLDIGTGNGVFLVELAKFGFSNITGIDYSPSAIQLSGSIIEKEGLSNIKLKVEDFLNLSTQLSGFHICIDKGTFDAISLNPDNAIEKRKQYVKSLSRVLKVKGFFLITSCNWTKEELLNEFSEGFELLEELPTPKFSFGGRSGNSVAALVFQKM
UniProt Q6V1X1: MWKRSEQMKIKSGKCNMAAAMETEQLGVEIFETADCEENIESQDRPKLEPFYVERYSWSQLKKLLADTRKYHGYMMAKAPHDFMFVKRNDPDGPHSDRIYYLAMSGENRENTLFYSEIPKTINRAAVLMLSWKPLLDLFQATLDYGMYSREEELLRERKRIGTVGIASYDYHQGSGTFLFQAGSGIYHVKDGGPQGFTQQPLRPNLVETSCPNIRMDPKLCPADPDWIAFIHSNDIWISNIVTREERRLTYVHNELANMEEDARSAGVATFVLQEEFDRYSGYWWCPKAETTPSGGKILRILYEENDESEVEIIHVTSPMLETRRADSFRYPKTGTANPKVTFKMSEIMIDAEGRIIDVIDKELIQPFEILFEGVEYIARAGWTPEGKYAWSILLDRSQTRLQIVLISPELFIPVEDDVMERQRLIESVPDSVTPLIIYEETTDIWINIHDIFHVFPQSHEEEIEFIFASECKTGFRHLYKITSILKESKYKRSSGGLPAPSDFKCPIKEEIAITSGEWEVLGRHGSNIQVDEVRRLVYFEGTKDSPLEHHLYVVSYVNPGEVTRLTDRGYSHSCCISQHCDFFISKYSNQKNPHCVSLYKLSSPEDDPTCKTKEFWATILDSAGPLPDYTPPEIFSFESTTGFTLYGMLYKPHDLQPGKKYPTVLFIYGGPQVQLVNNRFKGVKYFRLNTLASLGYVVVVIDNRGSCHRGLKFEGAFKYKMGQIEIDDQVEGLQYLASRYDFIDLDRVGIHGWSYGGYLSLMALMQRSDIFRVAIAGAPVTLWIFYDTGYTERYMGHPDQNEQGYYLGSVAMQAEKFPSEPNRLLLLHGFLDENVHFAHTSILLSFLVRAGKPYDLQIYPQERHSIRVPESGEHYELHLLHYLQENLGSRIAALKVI
UniProt Q9Y6G9, whole entry, looked up: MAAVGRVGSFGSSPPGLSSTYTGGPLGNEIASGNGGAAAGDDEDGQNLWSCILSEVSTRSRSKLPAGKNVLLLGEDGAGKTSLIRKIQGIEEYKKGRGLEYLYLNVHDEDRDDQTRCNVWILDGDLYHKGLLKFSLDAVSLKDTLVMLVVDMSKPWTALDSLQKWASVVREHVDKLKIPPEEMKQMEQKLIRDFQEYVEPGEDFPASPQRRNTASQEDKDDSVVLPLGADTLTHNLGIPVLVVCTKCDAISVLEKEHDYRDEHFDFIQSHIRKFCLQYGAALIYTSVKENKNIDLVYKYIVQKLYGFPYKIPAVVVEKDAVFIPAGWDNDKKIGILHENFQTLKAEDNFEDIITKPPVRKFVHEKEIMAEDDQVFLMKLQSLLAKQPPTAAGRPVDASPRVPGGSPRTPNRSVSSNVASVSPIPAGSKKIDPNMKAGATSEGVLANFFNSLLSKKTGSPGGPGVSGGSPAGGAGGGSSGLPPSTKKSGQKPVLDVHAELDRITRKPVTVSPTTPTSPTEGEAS
UniProt P33316: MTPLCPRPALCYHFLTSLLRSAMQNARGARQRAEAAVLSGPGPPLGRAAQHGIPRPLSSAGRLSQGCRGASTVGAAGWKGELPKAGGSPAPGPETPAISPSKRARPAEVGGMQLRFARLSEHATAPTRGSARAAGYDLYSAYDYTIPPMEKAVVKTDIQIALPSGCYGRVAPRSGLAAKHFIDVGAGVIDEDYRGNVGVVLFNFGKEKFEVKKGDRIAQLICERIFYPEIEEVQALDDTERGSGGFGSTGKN
UniProt Q96FJ2, whole entry, looked up: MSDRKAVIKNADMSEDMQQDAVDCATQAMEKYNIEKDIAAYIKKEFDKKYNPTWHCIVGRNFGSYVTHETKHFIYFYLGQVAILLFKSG

These targets were tested with CC(C)C1=C2N=C(C=C(N2N=C1)NCC3=CC=CC=C3)NCCCCCCN (assay: log2 fold change, soluble protein after heating vs DMSO (PISA); higher = thermal stabilisation; K562 lysate, 10 uM; active = over 0.2 and 3.5 SD of the protein, either way, in both replicates (recomputed)).
Method in brief: (§1)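 Dounce homogenisation of K562 pellets in PBS pH 7.4 with 1 mM MgCl2 produced a crude extract, used at 1 mg/mL protein. Exposure to 10 μM compound lasted 30 min, and aliquots were then heated for 3 min across 48°C-58°C, pooled and brought to 0.5% NP-40 at 4°C. The supernatant after 21,000xg for 90 min was quantified by TMTpro 16plex LC-MS/MS with channel sums equalised. Duplicate values are given as log-two fold change in thermal stability relative to solvent controls.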

Target	log2 fold change
EIF1B (UniProt O60739)	inactive: -0.08
EEA1 (UniProt Q15075)	inactive: -0.022
DUS2 (UniProt Q9NX74)	inactive: -0.003
ECPAS (UniProt Q5VYK3)	inactive: -0.017
DYM (UniProt Q7RTS9)	inactive: -0.069
EI24 (UniProt O14681)	inactive: 0.009
DSG2 (UniProt Q14126)	inactive: -0.019
E2F3 (UniProt O00716)	inactive: -0.024
DRG1 (UniProt Q9Y295)	inactive: -0.011
ECE1 (UniProt P42892)	inactive: -0.045
DUS3L (UniProt Q96G46)	inactive: -0.007
EHMT2 (UniProt A2ABF8)	inactive: -0.009
EEF1AKMT2, A0A494BZY7	inactive: -0.001
DPP8 (UniProt Q6V1X1)	inactive: -0.045
DYNC1LI1 (UniProt Q9Y6G9)	inactive: -0.008
DPY19L1, A0A1B0GW05	inactive: -0.001

These targets were tested with CC1=C(C(CC(=O)N1)C2=CC=C(C=C2)C(F)(F)F)C(=O)NC3=C(C=C4C(=C3)C=NN4)F in the same assay as above.
Method in brief: as §1

Target	log2 fold change
EEF1D isoform 2 (UniProt P29692)	inactive: -0.047
DSN1 (UniProt Q9H410)	inactive: 0.024
EHBP1L1 (UniProt Q8N3D4)	inactive: -0.001
EBNA1BP2 (UniProt Q99848)	inactive: -0.007
EAPP (UniProt Q56P03)	inactive: 0.037
DSTN (UniProt P60981)	inactive: -0.001
EIF1AD (UniProt Q8N9N8)	inactive: -0.011
EHD1 (UniProt Q9H4M9)	inactive: -0.006
EEF1G isoform 2 (UniProt P26641)	inactive: 0.001
ECT2 (UniProt Q9H8V3)	inactive: -0.046
EHBP1 isoform 2 (UniProt Q8NDI1)	inactive: -0.063
DYNLT1 (UniProt P63172)	inactive: -0.011
DUSP3 (UniProt P51452)	inactive: -0.024
EEF1A1, A0A087WVQ9	inactive: 0.091
DPH5 isoform 5 (UniProt Q9H2P9)	inactive: -0.034
DUT (UniProt P33316)	inactive: -0.024
EEF1B2 (UniProt P24534)	inactive: -0.027
DYNLL2 (UniProt Q96FJ2)	inactive: -0.081
EDRF1 (UniProt Q3B7T1)	inactive: 0.043
DUS1L (UniProt Q6P1R4)	inactive: 0.02

Target	log2 fold change
E4F1 (UniProt Q66K89)	inactive: 0.038
DPF2 (UniProt Q92785)	inactive: -0.013
DPH2 (UniProt Q9BQC3)	inactive: -0.004
EIF1B (UniProt O60739)	inactive: -0.211
EEA1 (UniProt Q15075)	inactive: -0.014
DUS2 (UniProt Q9NX74)	inactive: -0.056
ECPAS (UniProt Q5VYK3)	inactive: 0.002
DYM (UniProt Q7RTS9)	inactive: 0.049
EI24 (UniProt O14681)	inactive: 0.046
DSG2 (UniProt Q14126)	inactive: 0.032
E2F3 (UniProt O00716)	inactive: -0.09
DRG1 (UniProt Q9Y295)	inactive: -0.038
ECE1 (UniProt P42892)	inactive: 0
DUS3L (UniProt Q96G46)	inactive: 0.004
EHMT2 (UniProt A2ABF8)	inactive: 0.01
EEF1AKMT2, A0A494BZY7	inactive: 0.108
DPP8 (UniProt Q6V1X1)	inactive: 0.006
DYNC1LI1 (UniProt Q9Y6G9)	inactive: 0.001
DPY19L1, A0A1B0GW05	inactive: 0.044

The targets below were run with CC1=C(C2=C(C=C1)C(=O)C3=CC=CC=C3N2CCCN)C in the same assay as above.
Method in brief: as §1

Target	log2 fold change
EEF1D isoform 2 (UniProt P29692)	inactive: 0.021
DSN1 (UniProt Q9H410)	inactive: -0.018
EHBP1L1 (UniProt Q8N3D4)	inactive: -0.02
EBNA1BP2 (UniProt Q99848)	inactive: -0.021
EAPP (UniProt Q56P03)	inactive: -0.037
DSTN (UniProt P60981)	inactive: 0.045
EIF1AD (UniProt Q8N9N8)	inactive: -0.017
EHD1 (UniProt Q9H4M9)	inactive: 0.004
EEF1G isoform 2 (UniProt P26641)	inactive: 0.02
ECT2 (UniProt Q9H8V3)	inactive: -0.015
EHBP1 isoform 2 (UniProt Q8NDI1)	inactive: 0.013
DYNLT1 (UniProt P63172)	inactive: 0.018
DUSP3 (UniProt P51452)	inactive: -0.025
EEF1A1, A0A087WVQ9	inactive: 0
DPH5 isoform 5 (UniProt Q9H2P9)	inactive: -0.111
DUT (UniProt P33316)	inactive: -0.027
EEF1B2 (UniProt P24534)	inactive: 0.02
DYNLL2 (UniProt Q96FJ2)	inactive: 0.007
EDRF1 (UniProt Q3B7T1)	inactive: 0.009
DUS1L (UniProt Q6P1R4)	inactive: 0.028

Target	log2 fold change
E4F1 (UniProt Q66K89)	inactive: -0.049
DPF2 (UniProt Q92785)	inactive: -0.042
DPH2 (UniProt Q9BQC3)	inactive: -0.004
EIF1B (UniProt O60739)	inactive: -0.137
EEA1 (UniProt Q15075)	inactive: -0.012
DUS2 (UniProt Q9NX74)	inactive: -0.029
ECPAS (UniProt Q5VYK3)	inactive: -0.002
DYM (UniProt Q7RTS9)	inactive: -0.107
EI24 (UniProt O14681)	inactive: 0.03
DSG2 (UniProt Q14126)	inactive: -0.004
E2F3 (UniProt O00716)	inactive: 0.031
DRG1 (UniProt Q9Y295)	inactive: -0.024
ECE1 (UniProt P42892)	inactive: 0.005
DUS3L (UniProt Q96G46)	inactive: -0.007
EHMT2 (UniProt A2ABF8)	inactive: -0.008
EEF1AKMT2, A0A494BZY7	inactive: -0.033
DPP8 (UniProt Q6V1X1)	inactive: 0.017
DYNC1LI1 (UniProt Q9Y6G9)	inactive: 0.007
DPY19L1, A0A1B0GW05	inactive: 0.02
